# From ChEMBL document CHEMBL4513139, “CO-ADD screening of University of Strathclyde (UK) compounds”
# The list shows a part of the results. Results with a measured potency or affinity are listed apart.
# Tested on: Pseudomonas aeruginosa
# Conditions: Concentration 32 ug.mL-1; ASSAY_TEST Inhibition of Bacterial Growth; detection method Absorption (OD600); MEDIA CAMHB; plate type 384well; NBS; CORNING #3640; time 18 hr
row,SMILES,Inhibition
1,COc1cccc(C(=O)Nc2cc(C(=O)Nc3cc(C(=O)Nc4cn(CCCN(C)C)cn4)n(C)c3)n(C)c2)c1.O=C(O)C(F)(F)F,-5.62%
2,CC(C)CCc1sc(NC(=O)c2cc(NC(=O)c3ccc(/C=C/c4cc5ccccc5nc4Cl)cc3)cn2C)nc1C(=O)NCCN1CCOCC1.O=C(O)C(F)(F)F,-35.38%
3,CN(C)CCCNC(=O)c1cc(NC(=O)c2cc(NC(=O)c3cc(NC(=N)c4ccccc4)cn3C)cn2C)cn1C.O=C(O)C(F)(F)F.O=C(O)C(F)(F)F,-17.58%
4,Cc1ccc(S(=O)(=O)NCCc2cn(Cc3cnc(C)nc3N)nn2)cc1,1.35%
5,CCOC(=O)c1cc(NC(=O)c2cc(NC(=O)c3nc(N)sc3CCC(C)C)cn2C)cn1C,38.08%
6,Cc1ncc(Cn2cc(CCO)nn2)c(N)n1,-0.49%
7,Cn1cc(NC(=O)c2cc(NC(=O)c3cc(NC(=O)c4ccc(Cl)cc4Cl)cn3C)cn2C)cc1C(=O)NCCN1CCOCC1.O=C(O)C(F)(F)F,15.38%
8,CN(C)CCCNC(=O)c1cc(NC(=O)c2cc(NC(=O)c3cc(NC(=N)N)cn3C)cn2C)cn1C.O=C(O)C(F)(F)F.O=C(O)C(F)(F)F,12.25%
9,COC(=O)CCC(=O)Nc1cc(C(=O)Nc2cc(C(=O)NCCC(=N)N)n(C)c2)n(C)c1.O=C(O)C(F)(F)F,-3.66%
10,CC(C)CCc1sc(N)nc1C(=O)Nc1cc(C(=O)Nc2cc(C(=O)NCCN3CCOCC3)n(C)c2)n(C)c1.O=C(O)C(F)(F)F,12.69%
11,CC(C)c1sc(N)nc1C(=O)Nc1cc(C(=O)NCCN2CCOCC2)n(C)c1.O=C(O)C(F)(F)F,17.13%
12,Cc1ncc(Cn2cc(CCCCO)nn2)c(N)n1,2.34%
13,COc1cccc(C(=N)Nc2cc(C(=O)Nc3cc(C(=O)NCCC(=N)N)n(C)c3)n(C)c2)c1.O=C(O)C(F)(F)F.O=C(O)C(F)(F)F,16.48%
14,CCOC(=O)c1cc(NC(=O)c2cc(NC(=O)c3sc(N)nc3C(F)(F)F)cn2C)cn1C,24.05%
15,Cn1cc(NC(=O)c2cc(NC(=O)c3sc(N)nc3C(F)(F)F)cn2C)cc1C(=O)NCCC(=N)N.O=C(O)C(F)(F)F,-23.42%
16,Cc1ncc(Cn2cc(CO)nn2)c(N)n1,-32.15%
17,CC(=O)Nc1cc(C(=O)Nc2cc(C(=O)Nc3cc(C(=O)NCCCN(C)C)n(CCC(C)C)c3)n(C)c2)n(C)c1.O=C(O)C(F)(F)F,-10.52%
18,CN(C)CCCNC(=O)c1cc(NC(=O)c2cc(NC(=O)c3ccc(C(=O)O)cc3)cn2C)cn1C.O=C(O)C(F)(F)F,6.54%
19,CC(C)CCc1sc(NC(=O)c2cc(NC(=O)c3cc(NC(=O)c4ccc(C(=O)O)cc4)cn3C)cn2C)nc1C(=O)NCCCN(C)C.O=C(O)C(F)(F)F,7.07%
20,CC(C)n1cc(NC(=O)c2cc(NC(=O)c3cc(NC=O)cn3C(C)C)cn2C)cc1C(=O)NCCCN(C)C.O=C(O)C(F)(F)F,4.09%

row,SMILES,Inhibition
1,Cc1ncc(CNc2ccc(C(F)(F)F)cc2)c(N)n1,-17.37%
2,Cc1ncc(Cn2cc(CCCO)nn2)c(N)n1,-31.15%
3,COc1cccc(C(=N)Nc2cc(C(=O)Nc3cc(C(=O)Nc4cn(CCCN(C)C)cn4)n(C)c3)n(C)c2)c1.O=C(O)C(F)(F)F.O=C(O)C(F)(F)F,5.49%
4,COC(=O)c1ccc(C(=O)Nc2cc(C(=O)Nc3cc(C(=O)NCCC(=N)N)n(C)c3)n(C)c2)cc1.O=C(O)C(F)(F)F,-8.92%
5,COC(=O)c1ccc(C(=O)Nc2cc(C(=O)Nc3cc(C(=O)NCCN4CCOCC4)n(C)c3)n(C)c2)cc1.O=C(O)C(F)(F)F,3.6%
6,CC(C)c1sc(N)nc1C(=O)Nc1cc(C(=O)Nc2cc(C(=O)NCCN3CCOCC3)n(C)c2)n(C)c1.O=C(O)C(F)(F)F,0.36%
7,Cn1cc(NC(=O)c2cc(NC(=O)c3sc(N)nc3C(F)(F)F)cn2C)cc1C(=O)NCCN1CCOCC1.O=C(O)C(F)(F)F,-11.34%
8,COCCOC1CCN(C(=O)c2cc(NC(=O)c3cc(NC(=O)c4ccc(/C=C/c5ccc(OC)cc5)cc4)cn3C)cn2C)CC1.O=S(=O)(O)O,6.82%
9,Cn1cc(NC(=O)c2cc(NC(=O)c3ccc(/C=C/c4cccc(F)c4)cc3)cn2C)cc1C(=O)NCCN1CCOCC1.O=C(O)C(F)(F)F,-3.58%
10,COC(=O)CCC(=O)Nc1cc(C(=O)Nc2cc(C(=O)NCCCN(C)C)n(C)c2)n(C)c1.O=C(O)C(F)(F)F,-41.02%
11,CN(C)CCCNC(=O)c1cc(NC(=O)c2cc(NC(=O)CCC(=O)O)cn2C)cn1C.O=C(O)C(F)(F)F,4.9%
12,Cc1ncc(CNc2ccc(Cl)cc2)c(N)n1,22.29%
13,CC(C)CCc1sc(NC(=O)c2cc(NC(=O)c3ccc(/C=C/c4cc5ccccc5nc4On4nnc5ccccc54)cc3)cn2C)nc1C(=O)NCCN1CCOCC1.O=C(O)C(F)(F)F,-45.98%
14,Cc1ncc(CNc2ccc(F)cc2)c(N)n1,25.33%
15,CC(C)CCc1sc(NC(=O)c2cc(NC(=O)c3cc(NC(=O)CCC(=O)O)cn3C)cn2C)nc1C(=O)NCCCN(C)C.O=C(O)C(F)(F)F,6.91%
16,Cc1ncc(CNc2ccc(C(C)(C)C)cc2)c(N)n1,6.39%
17,CC(=O)Nc1cc(C(=O)Nc2cc(C(=O)Nc3cc(C(=O)NCCCN(C)C)n(C)c3)n(C)c2)n(C)c1.O=C(O)C(F)(F)F,8.95%
18,COc1cccc(C(=N)Nc2cc(C(=O)Nc3cc(C(=O)Nc4cc(C(=O)NCCCN(C)C)n(C)c4)n(C)c3)n(C)c2)c1.O=C(O)C(F)(F)F.O=C(O)C(F)(F)F,16.01%
19,COc1ccc(/C=C(/C(=O)Nc2cc(C(=O)Nc3cc(C(=O)NCCCN(C)C)n(C)c3)n(C)c2)c2ccc(OC)cc2)cc1.O=C(O)C(F)(F)F,10.3%
20,COC(=O)CCC(=O)Nc1cc(C(=O)Nc2cc(C(=O)NCCN3CCOCC3)n(C)c2)n(C)c1.O=C(O)C(F)(F)F,13.77%

# Looked up above:
# CC(C)CCc1sc(NC(=O)c2cc(NC(=O)c3cc(NC(=O)CCC(=O)O)cn3C)cn2C)nc1C(=O)NCCCN(C)C.O=C(O)C(F)(F)F | Inhibition: 6.91%
# Cc1ncc(CNc2ccc(Cl)cc2)c(N)n1 | Inhibition: 22.29%
# CC(C)n1cc(NC(=O)c2cc(NC(=O)c3cc(NC=O)cn3C(C)C)cn2C)cc1C(=O)NCCCN(C)C.O=C(O)C(F)(F)F | Inhibition: 4.09%
# COc1ccc(/C=C(/C(=O)Nc2cc(C(=O)Nc3cc(C(=O)NCCCN(C)C)n(C)c3)n(C)c2)c2ccc(OC)cc2)cc1.O=C(O)C(F)(F)F | Inhibition: 10.3%

# Carrying on.

row,SMILES,Inhibition
1,CC(=O)N(C(C)=O)c1cc(C(=O)Nc2cc(C(=O)NCCC(=N)N)n(C)c2)n(C)c1.O=C(O)C(F)(F)F,11.03%
2,Cc1ncc(CO)c(N)n1,-5.34%
3,CCOC(=O)c1cc(NC(=O)c2cc(NC(=O)c3nc(N)sc3C(C)C)cn2C)cn1C,31.09%
4,CN(C)CCCNC(=O)c1cc(NC(=O)c2cc(NC(=O)c3cc4ccccc4cn3)cn2C)cn1C.O=C(O)C(F)(F)F,36.27%
5,Cc1ncc(CNc2ccccc2F)c(N)n1,18.14%
6,CC(=N)Nc1cc(C(=O)Nc2cc(C(=O)Nc3cc(C(=O)NCCN4CCOCC4)n(C)c3)n(C)c2)n(C)c1.O=C(O)C(F)(F)F.O=C(O)C(F)(F)F,15.64%
7,CC(C)c1sc(NC(=O)c2cc(NC(=O)c3cc(NC(=O)c4cnc(Cl)c(Cl)c4)cn3C)cn2C)nc1C(=O)NCCCN(C)C.O=C(O)C(F)(F)F,-4.4%
8,CCOC(=O)CCC(NC(=O)c1ccc(NCc2cn(Cc3cnc(C)nc3N)nn2)cc1)C(=O)OCC (centres undefined),-45.33%
9,Cc1ncc(Cn2cc(CCC(=O)O)nn2)c(N)n1.O=C(O)C(F)(F)F,-33.35%
10,Cc1ncc(Cn2cc(CCCN)nn2)c(N)n1.Cl,-39.92%
11,CC(C)CCn1cc(NC(=O)c2cc(NC(=O)c3cc(NC(=N)c4ccccc4)cn3C)cn2C)cc1C(=O)NCCCN(C)C.O=C(O)C(F)(F)F.O=C(O)C(F)(F)F,7.17%
12,COCCOC1CCN(C(=O)c2cc(NC(=O)c3cc(NC(=O)c4ccc(/C=C/c5cnc6ccccc6c5)cc4)cn3C)cn2C)CC1,2.14%
13,COc1ccc(CC(=O)Nc2cc(C(=O)Nc3cc(C(=O)Nc4cn(CCCN(C)C)cn4)n(C)c3)n(C)c2)cc1.O=C(O)C(F)(F)F,1.6%
14,COc1cccc(/C=C/c2ccc(C(=O)Nc3cc(C(=O)Nc4cc(C(=O)NCCN(C)C)n(C)c4)n(C)c3)cc2)c1.O=C(O)C(F)(F)F,3.22%
15,Cn1cc(NC(=O)c2cc(NC(=O)CCC(=O)O)cn2C)cc1C(=O)NCCN1CCOCC1.O=C(O)C(F)(F)F,25.32%
16,Cc1ncc(CNc2cccc(F)c2)c(N)n1,16.91%
17,COC(=O)c1ccc(C(=O)Nc2cc(C(=O)Nc3cc(C(=O)NCCCN(C)C)n(C)c3)n(C)c2)cc1.O=C(O)C(F)(F)F,-1.54%
18,COc1cccc(C(=N)Nc2cc(C(=O)Nc3cc(C(=O)Nc4cc(C(=O)NCCCN5CCOCC5)n(C)c4)n(C)c3)n(C)c2)c1.O=C(O)C(F)(F)F.O=C(O)C(F)(F)F,11.64%
19,Cc1ncc(Cn2cc(CC(N)C(=O)O)nn2)c(N)n1.Cl (centres undefined),-45.82%
